Assay results from PMC6716676, “Chemokine signaling links cell-cycle progression and cilia formation for left–right symmetry breaking” (PLoS Biology, 2019).
Results are given in words; binding and its absence hold for the method and conditions named. In cells and extracts the contact can be indirect. Binding can be weak; no strength is given. For some of these results: Where a sequence is shown, tags or fusion partners need not be part of it. Values belong to the molecule of their own block, whether it stands above or below them.

How the values were obtained:
[1] = molecular target: T1, Flag-zFoxj1a (zebrafish forkhead box j1a) (zebrafish) (UniProt F1QDF8); test: co-IP; HEK293T cells transfected with the tagged proteins, in some panels MG132 for 5 hours prior to harvest or CDK4 / CDK4-K38M co-expressed; TNE lysis buffer, anti-Flag-agarose or protein A-Sepharose beads, 4 °C for 4 hours
T1 sequence: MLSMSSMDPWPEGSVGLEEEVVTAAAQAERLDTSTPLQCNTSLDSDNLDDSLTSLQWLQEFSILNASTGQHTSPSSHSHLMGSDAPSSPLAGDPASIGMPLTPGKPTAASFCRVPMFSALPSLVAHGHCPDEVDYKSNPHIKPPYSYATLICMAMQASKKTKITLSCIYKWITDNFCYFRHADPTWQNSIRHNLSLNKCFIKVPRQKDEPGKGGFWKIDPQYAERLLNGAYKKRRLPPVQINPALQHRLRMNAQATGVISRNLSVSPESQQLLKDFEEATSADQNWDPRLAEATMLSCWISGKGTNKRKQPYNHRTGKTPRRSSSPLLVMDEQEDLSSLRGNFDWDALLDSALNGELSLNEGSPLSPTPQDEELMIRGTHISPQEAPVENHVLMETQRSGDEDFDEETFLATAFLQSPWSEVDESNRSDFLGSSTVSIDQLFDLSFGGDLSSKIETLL

[2] = molecular target: T2, Flag-Psmd4b (proteasome 26S subunit, non-ATPase 4b), expressed in HEK293T (zebrafish) (UniProt Q561Y1); test: as above
T2 sequence: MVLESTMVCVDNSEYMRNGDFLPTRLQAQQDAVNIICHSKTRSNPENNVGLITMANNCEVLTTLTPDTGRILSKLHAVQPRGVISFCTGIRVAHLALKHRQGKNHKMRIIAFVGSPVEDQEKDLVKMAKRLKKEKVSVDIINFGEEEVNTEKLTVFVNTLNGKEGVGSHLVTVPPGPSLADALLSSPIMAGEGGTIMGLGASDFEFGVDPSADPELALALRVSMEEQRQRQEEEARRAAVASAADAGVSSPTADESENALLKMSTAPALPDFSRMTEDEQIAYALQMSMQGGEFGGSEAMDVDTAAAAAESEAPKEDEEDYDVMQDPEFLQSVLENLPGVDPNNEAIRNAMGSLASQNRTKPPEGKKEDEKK

[3] = molecular target: Myc-CDK4 expressed in zebrafish embryos (zebrafish); test: co-IP; lysates of bud-stage zebrafish embryos expressing the tagged partner from injected mRNA; TNE lysis buffer (10 mM Tris-HCl pH 7.5, 150 mM NaCl, 2 mM EDTA, 0.5% Nonidet P-40), 4 °C for 4 hours; endogenous zFoxj1a detected by blot

binding [1]: no binding
Molecule: CDK4-K38M (zebrafish) (enzyme)

binding [3]: binds
B1: Flag-zFoxj1a (zebrafish forkhead box j1a) (natural protein, UniProt F1QDF8 1-458, looked up)
chain: T1 sequence
notes: forkhead box j1a (Foxj1a), zebrafish; In the self-association co-IP the second copy carried an HA tag instead of Flag (HA-zFoxj1a); also called Flag-tagged zFoxj1a; wild-type zFoxj1a; source: HEK293T, transfected, in lysate

The remaining lines, values behind:

Molecule: Myc-CDK4 (cyclin-dependent kinase 4), expressed in HEK293T (zebrafish) (enzyme)
binding [1]: binds

Molecule: HA-zFoxj1a-K20R (from UniProt F1QDF8)
binding [2]: binds
